The whole screen tested about 340,000 compounds, of which about 170 (0.05%) were called active. This list was built around the results that the source calls inconclusive (neither active nor inactive); the mix of calls is not that of the screen. The call rests on the fitted dose curve; in most records, active means well fitted inhibition curve with a large enough effect in the signal ratio, with a control signal flat (not every such curve was filed as active); inconclusive means small, poorly fitted or top-dose-only effect, or effect the other way, or a change in a side signal; inactive means flat fitted curve, though single readings scatter; the % refers to the signal ratio. Potencies beside an inconclusive call are fits to weak or partial responses and may not hold up.
Test: qHTS Assay to Find Inhibitors of Chronic Active B-Cell Receptor Signaling;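 on activity change, negative = inhibition: plate controls were basal doxycycline-induced cells for no effect and cells given 10 µM MG132 for full effect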
Settings: ABC-DLBCL IkBa-CBG/CBR reporter, luminescence ratio (green luciferase fused to IkBa over red control in TMD8 lymphoma cells), 4 h; activity change, negative = inhibition: at 46.1 µM (top of the series)
Outline: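 Compounds up to 46 uM were incubated four hours with TMD8 cells whose green CBG68 luciferase is fused to IkappaBalpha; red CBR luminescence normalised the signal, and concentration-effect curves were fitted to fusion, red and ratio data.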
Potency means the concentration at half of the fitted maximal effect.

| SMILES | activity change, negative = inhibition | Potency |
| --- | --- | --- |
| CCCC(=O)N1CCN(c2ccc(NC(=S)NC(=O)c3cccc(C)c3)cc2)CC1 | inactive | – |
| O=C(NCc1ccccn1)c1ccc(Cl)c(S(=O)(=O)NCc2ccccc2)c1 | inconclusive: 0.893% | – |
| O=C(CSc1ccccc1)N1CCN(c2ccccc2)CC1 | inconclusive: -0.496% | – |
| O=C(COC(=O)c1cnccn1)c1ccc(C2CCCCC2)cc1 | inactive | – |
| Cc1ccc(Nc2cccccc2=O)cc1 | inconclusive: 3.4% | – |
| O=C(CSc1nnc(Nc2ccccc2F)s1)Nc1cccc(S(=O)(=O)N2CCCCC2)c1 | inconclusive: -12.9% | – |
| COc1ccc(S(=O)(=O)Oc2cccc(/C=N/N=C3/NC(=O)C(CC(=O)O)S3)c2)cc1 (stereo not drawn) | inactive | – |
| COc1ccc2nc(NC3=NCCC3)sc2c1 | – | inconclusive: 20 µM [falling, single point] |
| Cc1cc(/C=N/NC(N)=S)c(C)n1-c1ccc(Cl)c(Cl)c1 | – | inconclusive: 20.6 µM [cytotoxic, single point] |
| CCS(=O)(=O)C(=C1Nc2ccccc2N1)S(=O)(=O)CC | inconclusive: 16.4% | – |
| O=C(N/N=C\c1cccc(OC(=O)c2ccco2)c1)c1ccc2c(c1)OCO2 | – | inconclusive: 23.1 µM [falling, partial curve] |
| Cc1c(C(=O)Nc2cccc([N+](=O)[O-])c2)cnn1-c1ccccc1 | inconclusive: -0.787% | – |
| COc1ccccc1NC(=O)COC(=O)c1c[nH]c(=O)[nH]c1=O | inconclusive: 2.83% | – |
| CC(C)(C)C1C/C(=C/c2ccccn2)C(=O)/C(=C/c2ccccn2)C1 (stereo not drawn) | – | inconclusive: 1.78 µM [falling, full curve, poor fit] |
| Clc1cccc(Cl)c1CON/C=N/c1ncnc2sccc12 | inconclusive: 10.9% | – |
| COc1ccc(OCC(=O)Nc2cccc(C(C)=O)c2)cc1 | inconclusive: -2.25% | – |
| O=C(NCc1ccccc1CN1CCCC1)c1cc2cc(Cl)ccc2o1 | inconclusive: 0.668% | – |
| CCC1(C)SC(NC(C)=O)=NN1C(C)=O (stereo not drawn) | – | inconclusive: 5.62 µM [falling, single point] |
| CCN(CC(=O)Nc1c(F)cccc1F)C(=O)c1cnccn1 | inactive | – |
| Cc1ccc(S(=O)(=O)N2CCCCC2)cc1C(=O)NCc1ccccn1 | inconclusive: -7.63% | – |
| COc1ccc(CCC(=O)Nc2sccc2C#N)cc1 | inactive | – |
| Cc1cc(C(=O)OCC(=O)Nc2cccc(S(=O)(=O)N3CCOCC3)c2)c(C)o1 | – | inconclusive: 23.1 µM [falling, partial curve] |
| Cc1ccc2nc(Cl)c(/C=N/NC(=O)c3ccccc3O)cc2c1 | – | inconclusive: 18.4 µM [falling, partial curve] |

Record cards, as listed above. Values in the order: activity change, negative = inhibition	Potency
O=C(N/N=C\c1cccc(OC(=O)c2ccco2)c1)c1ccc2c(c1)OCO2 in the list: –	inconclusive: 23.1 µM [falling, partial curve]
O=C(CSc1ccccc1)N1CCN(c2ccccc2)CC1 in the list: inconclusive: -0.496%	–

Reference: PubChem BioAssay AID493014 (National Center for Advancing Translational Sciences (NCATS), 2011)
